Our source for the AC50 values is PubChem BioAssay AID1487 (National Center for Advancing Translational Sciences (NCATS), 2009).

Molecules are shown by their SMILES. The list shows a part of the results. These are further read-outs of the screen, such as a control signal, another cell line or another target. No call is given for them. Compounds called inactive in the main read-out are mostly missing here. Potencies come from curve fits of mixed quality, noted in brackets.

The experiment in a line: qHTS Assay for Modulators of Lamin A Splicing. The conditions noted are these: HeLa LMNA splicing GFP/RFP minigene ratio, 48 h. A digest of the protocol: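 Read-out is the ratio of GFP to DsRed2 object intensity, acquired by 488 nm laser-scanning cytometry on HeLa lamin A-EGFP minigene reporter cells. Compound incubation 48 hrs at 37 °C in Opti-MEM with 2% FBS; DMSO 0.5% final.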
A general note: Quantitative high-throughput screening tests each substance at several concentrations.

The mark [1] stands for this setting: measured here: GFP splicing reporter channel.
[2] abbreviates: measured here: RFP viability control channel.

In general, AC50 refers to the concentration giving half of the maximal activity seen. Take `COc1ccc([N+](=O)[O-])cc1NC(=O)CSc1ccc2ccccc2c1`: the concentration at half-maximal activity (AC50) is, setting by setting: under setting [1], 12.6 µM [rising, single point]; under setting [2], 15.8 µM [rising, partial curve].

As for `CCNc1nc(OC)nc(N2CCC(Cc3ccccc3)CC2)n1`, the AC50 runs as follows: under setting [1], 35.5 µM [rising, single point]; under setting [2], 35.5 µM [rising, single point].

Consider `Cc1c(CCOC(=O)c2ccccc2)sc[n+]1Cc1ccccc1`, for which the concentration at half-maximal activity (AC50) was 12.6 µM [rising, single point] under setting [1] and 20 µM [rising, single point] under setting [2].

Regarding `COc1ccc(N(CC(=O)NCCC2=CCCCC2)S(=O)(=O)c2ccccc2)cc1OC`, the AC50 runs as follows: under setting [1], 8.91 µM [falling, partial curve, poor fit]; under setting [2], 0.00501 µM [falling, full curve, poor fit].

Turning to `CCC(=O)c1ccc(OCC(O)CN2CCN(c3cccc(C(F)(F)F)c3)CC2)cc1` (stereo unspecified), under setting [2], the AC50 was 11.2 µM [rising, partial curve, poor fit].

`CC1=C(C(=O)OCc2ccc3c(c2)OCO3)C(c2ccc(F)cc2)NC(=O)N1` (stereo unspecified): the AC50 is 20 µM [rising, partial curve, poor fit] under setting [1] and 11.2 µM [rising, partial curve] under setting [2].

Consider `CC1C(=O)C(C)C(c2ccc([N+](=O)[O-])cc2)NC1c1ccc([N+](=O)[O-])cc1` (stereo unspecified), for which the concentration at half-maximal activity (AC50) under setting [2] is 3.98 µM [falling, partial curve, poor fit].

As for `O=C(COc1ccccc1)Nc1cccc(-c2nnc(-c3ccccc3)o2)c1`, the AC50 under setting [2] was 20 µM [rising, single point].

With `CCOc1ccc(C2C(C(=O)Nc3cc(C)on3)c3ccccc3C(=O)N2CCN2CCOCC2)cc1` (stereo unspecified), under setting [2], the concentration at half-maximal activity (AC50) is 1.41 µM [rising, partial curve, poor fit].

Consider `CCOC(=O)c1csc(NC(=O)c2cc(OC)c(OC)c(OC)c2)n1`, for which the AC50 runs as follows: under setting [1], 35.5 µM [falling, single point]; under setting [2], 3.55 µM [rising, single point].

As to `CC(=O)C1=C(c2ccccc2)NC(=S)NC1c1cc(Cl)c(OC(C)C)c(Cl)c1` (stereo unspecified), under setting [1], the concentration at half-maximal activity (AC50) was 35.5 µM [falling, single point].

On to `CCOC(=O)c1c(NC(=O)CSc2nnnn2C)sc(C)c1-c1ccc(C)cc1`, for which the AC50 runs as follows: under setting [1], 35.5 µM [rising, single point]; under setting [2], 12.6 µM [rising, partial curve].

As to `Cn1c(=O)c2c(nc(NCCCO)n2Cc2cccc(Br)c2)n(C)c1=O`, the AC50 runs as follows: under setting [1], 12.6 µM [rising, partial curve]; under setting [2], 15.8 µM [rising, single point].

As to `O=C(CN(C(=O)CSc1nc2ccccc2o1)c1ccccc1F)NC1CCCCC1`, under setting [2], the concentration at half-maximal activity (AC50) is 15.8 µM [rising, single point].

For `Cc1ccc(NC(=O)c2ccc(CN3CC(=O)N4CCCCC4C3=O)cc2)c(C)c1` (stereo unspecified), the half-maximal activity concentration (AC50) under setting [1] is 0.0224 µM [falling, full curve, poor fit].

Consider `NCCS(=O)O`, for which the concentration at half-maximal activity (AC50) is 6.31 µM [falling, single point] under setting [1] and 6.31 µM [falling, single point] under setting [2].

For `Cc1ccc(-n2ncc3c(N4CCN(c5ccccc5)CC4)ncnc32)c(C)c1`, the AC50 reads like this: under setting [1], 5.62 µM [rising, full curve, poor fit]; under setting [2], 3.55 µM [rising, full curve].

As for `CC(CNc1ccc([N+](=O)[O-])c2cccnc12)Nc1c([N+](=O)[O-])cc(C(F)(F)F)cc1[N+](=O)[O-]` (stereo unspecified), the AC50 under setting [2] was 14.1 µM [rising, partial curve, poor fit].

`COc1cc2c3c(c1)C(C)=CC(C)(C)N3C(=O)C2=O`: the AC50 runs as follows: under setting [1], 35.5 µM [falling, single point]; under setting [2], 35.5 µM [falling, single point].

With `Cc1cc(=O)[nH]c(SCCOc2ccc(OC(C)C)cc2)n1`, under setting [2], the AC50 was 14.1 µM [rising, partial curve].

With `COc1ccc(-c2nc3ccccn3c2CN2CCN(c3ccccc3F)CC2)cc1`, the half-maximal activity concentration (AC50) reads like this: under setting [1], 35.5 µM [falling, single point]; under setting [2], 35.5 µM [falling, partial curve, poor fit].

On to `COc1ccc(-c2nnc(SCC(=O)NC(C)c3ccccc3)o2)cc1OC` (stereo unspecified), for which, under setting [1], the half-maximal activity concentration (AC50) is 35.5 µM [rising, single point].

As for `C=C1C(=O)C=C2CN(C(=O)c3ccccc3)[C@@](Cc3ccc(F)cc3)(C(=O)OC)[C@@H]12`, the half-maximal activity concentration (AC50) runs as follows: under setting [1], 1.78 µM [rising, partial curve]; under setting [2], 3.55 µM [rising, partial curve].

Consider `Cc1ccc(-c2nnn(CC(=O)N3CCN(c4nc5ccccc5s4)CC3)n2)cc1`, for which the AC50 runs as follows: under setting [1], 2.24 µM [rising, partial curve, poor fit]; under setting [2], 2.24 µM [rising, partial curve, poor fit].

With `S=C(NCc1ccccc1)N1CCN(c2cccc(Cl)c2)CC1`, the AC50 under setting [2] is 35.5 µM [rising, single point].

`CC(C)c1ccc(C(=O)NC(=S)NCc2cccnc2)cc1`: the half-maximal activity concentration (AC50) under setting [1] is 11.2 µM [rising, partial curve] and the AC50 under setting [2] was 15.8 µM [rising, partial curve].

As for `COc1ccc(N(Cc2ccccc2)C(=O)CSc2nnc(Cn3nnc4ccccc43)o2)cc1`, the AC50 under setting [2] is 35.5 µM [rising, single point].

Take `CCN(CC)c1ccc(-c2c(C#N)c(N)nc(OC)c2C#N)cc1`: the concentration at half-maximal activity (AC50) under setting [1] is 35.5 µM [falling, single point].

In the case of `COc1ccc(C(=O)Cn2nnc(-c3ccccc3NC(=O)C3CCCCC3)n2)cc1`, the concentration at half-maximal activity (AC50) under setting [2] is 10 µM [rising, single point].

Regarding `C=CCNC(=S)NC(=O)c1oc2ccccc2c1C`, the AC50 under setting [1] is 31.6 µM [rising, single point].

On to `Cc1ccc(C(=O)c2cccc(N)c2)cc1C`, for which the AC50 by setting is: under setting [1], 35.5 µM [falling, single point]; under setting [2], 12.6 µM [falling, partial curve, poor fit].

With `COC(=O)c1ccc(N2CN=C(c3ccc(C)cc3)NC2=S)cc1`, the concentration at half-maximal activity (AC50) was 2 µM [rising, full curve] under setting [1] and 2.51 µM [rising, full curve, poor fit] under setting [2].

Consider `Cc1ccc(C)c(N2CCN(CCCNC(=O)c3cnn(-c4ccc(F)cc4)c3C3CCN(C(=O)OC(C)(C)C)CC3)CC2)c1`, for which the AC50 was 14.1 µM [falling, partial curve] under setting [1] and 22.4 µM [falling, single point] under setting [2].
